Experimental data from article doi:10.1101/2024.06.14.598964.

By UniProt entry, the sequences of proteins in these tests, tags left out. Where a name states a change or a piece, a line headed by the entry shows the natural chain unless it says otherwise.
UniProt Q9UHY1: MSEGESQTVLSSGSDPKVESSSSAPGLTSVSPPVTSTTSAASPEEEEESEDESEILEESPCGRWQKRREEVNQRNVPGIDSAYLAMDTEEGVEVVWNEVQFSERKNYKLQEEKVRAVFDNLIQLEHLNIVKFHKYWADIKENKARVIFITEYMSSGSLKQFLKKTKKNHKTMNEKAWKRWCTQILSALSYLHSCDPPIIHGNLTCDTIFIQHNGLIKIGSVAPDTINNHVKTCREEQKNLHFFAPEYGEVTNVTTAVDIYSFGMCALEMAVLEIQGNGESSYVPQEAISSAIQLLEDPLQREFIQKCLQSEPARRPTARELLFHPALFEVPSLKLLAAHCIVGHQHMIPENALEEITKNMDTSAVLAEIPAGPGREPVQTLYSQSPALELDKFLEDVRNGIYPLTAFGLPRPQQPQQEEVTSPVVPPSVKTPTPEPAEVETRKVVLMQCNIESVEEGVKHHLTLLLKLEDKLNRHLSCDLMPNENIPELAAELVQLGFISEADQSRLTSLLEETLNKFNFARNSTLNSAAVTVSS
UniProt Q9NSY0: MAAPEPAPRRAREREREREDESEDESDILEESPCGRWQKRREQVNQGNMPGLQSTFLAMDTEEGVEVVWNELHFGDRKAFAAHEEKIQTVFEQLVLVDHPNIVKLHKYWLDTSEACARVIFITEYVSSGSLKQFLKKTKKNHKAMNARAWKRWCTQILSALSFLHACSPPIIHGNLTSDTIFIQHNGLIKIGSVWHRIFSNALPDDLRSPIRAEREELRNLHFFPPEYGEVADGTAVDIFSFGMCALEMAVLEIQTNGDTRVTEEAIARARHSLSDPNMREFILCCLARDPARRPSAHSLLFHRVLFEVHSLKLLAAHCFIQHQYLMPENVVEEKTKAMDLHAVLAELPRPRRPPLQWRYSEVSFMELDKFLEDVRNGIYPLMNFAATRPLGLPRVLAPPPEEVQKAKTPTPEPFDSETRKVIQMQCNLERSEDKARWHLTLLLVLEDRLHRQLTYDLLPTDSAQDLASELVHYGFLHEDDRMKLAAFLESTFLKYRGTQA

Target: NRBP1-Flag (full-length NRBP1) expressed in HEK293T cells (human) (UniProt Q9UHY1)
Assay: co-IP

| binding | Substance |
| --- | --- |
| binds | NRBP2-dDimer-myc (NRBP2 lacking the dimerization region) (from UniProt Q9NSY0) |
| binds | NRBP2-dNRB-myc (NRBP2 lacking the NRB motif) (from UniProt Q9NSY0) |

Results are given in words; binding and its absence hold for the method and conditions named. Binding seen in cells or lysates may run through a third protein. A result given as binding can be weak or reduced; the word gives no strength.
